These are yes or no findings as the source states them, for the method shown. In cells and extracts the contact can be indirect. Some results given as binding are weak or reduced against the parent protein; the word gives no strength. Where a sequence is shown, tags or fusion partners need not be part of it.
Molecular target: T1, C-terminally FLAG-tagged NIPSNAP3B (UniProt Q9BS92)
T1 sequence: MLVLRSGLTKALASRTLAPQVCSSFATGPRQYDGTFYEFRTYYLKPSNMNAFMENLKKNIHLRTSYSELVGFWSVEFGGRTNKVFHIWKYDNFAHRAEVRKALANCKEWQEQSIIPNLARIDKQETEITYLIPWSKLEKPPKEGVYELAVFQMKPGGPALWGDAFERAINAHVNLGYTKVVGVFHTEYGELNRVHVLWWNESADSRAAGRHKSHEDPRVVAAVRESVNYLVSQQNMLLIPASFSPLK
Test: co-IP; lysates of BEAS-2B cells transfected with FLAG-tagged NIPSNAPs (with 10 uM Q-VD-OPH); anti-FLAG antibody beads overnight at 4 °C; lysis and wash buffer 1% Triton-X 100, 0.5% sodium deoxycholate, 0.15 M NaCl, 2 mM EDTA, 50 mM HEPES-NaOH 7.4; four washes; p62 detected by WB

- binding: binds weakly
Substance: p62 (from UniProt Q13501 1-440)

Source: paper PMC10824736
